Measured values taken from patent US10206397B2, “N-acylimino heterocyclic compounds” (BASF SE, priority 2013, dated 2019).
Some entries share one result that the patent states for a list of compounds.

How the values were obtained:
Assay type in all cases: in vivo
[1] = test system: green peach aphid (Myzus persicae); assay: Green peach aphid systemic test, artificial diet in 96-well microtiter plates; settings: 2500 ppm; adult aphids on treated artificial diet; 3 days
Text: B.1 Green Peach Aphid (Myzus persicae)
For evaluating control of green peach aphid (Myzus persicae) through systemic means, the test unit consists of 96-well-microtiter plates containing liquid artificial diet under an artificial membrane.
The compounds are formulated using a solution containing 75% v/v water and 25% v/v DMSO. Different concentrations of formulated compounds are pipetted into the aphid diet, using a custom built pipetter, at two replications.
After application, 5-8 adult aphids are placed on the artificial membrane inside the microtiter plate wells. The aphids are then allowed to suck on the treated aphid diet and incubated at about 23+1° C. and about 50+5% relative humidity for 3 days. Aphid mortality and fecundity is then visually assessed.

[2] = test system: Cowpea Aphid (Aphis craccivora); assay: Cowpea aphid spray test on potted cowpea plants; settings: 500 ppm; sprayed potted cowpea plants; 72 hours
Description: B.4 Cowpea Aphid (Aphis craccivora)
The active compound is dissolved at the desired concentration in a mixture of 1:1 (vol:vol) distilled water:acetone. Surfactant (Alkamuls® EL 620) is added at a rate of 0.1% (vol/vol). The test solution is prepared at the day of use.
Potted cowpea plants are colonized with approximately 50-100 aphids of various stages by manually transferring a leaf tissue cut from infested plant 24 hours before application. Plants are sprayed after the pest population has been recorded. Treated plants are maintained on light carts at about 28° C. Percent mortality is assessed after 72 hours.

[3] = test system: Green Soldier Stink Bug (Nezara viridula); assay: Green soldier stink bug spray test on soybean pods; settings: 500 ppm; sprayed soybean pods, 3rd instar; 5 days
Description: B.10 Green Soldier Stink Bug (Nezara viridula)
The active compound is dissolved at the desired concentration in a mixture of 1:1 (vol:vol) distilled water:aceteone. Surfactant (Kinetic HV) is added at a rate of 0.01% (vol/vol). The test solution is prepared at the day of use.
Soybean pods were placed in microwavable plastic cups lined with moist filter paper and inoculated with ten 3rd instar N. viridula. Using a hand atomizer, approximately 2 ml solution is sprayed into each cup. Treated cups were kept at about 28-29° C. and relative humidity of about 50-60%. Percent mortality was recorded after 5 days.

| Compound | mortality in comparison with untreated controls [1] | mortality in comparison with untreated controls [2] | mortality in comparison with untreated controls [3] |
| --- | --- | --- | --- |
| N#CCC(=O)N=c1ccccn1CC1CCOC1 (racemic) [I.A-5] | at least 75% | at least 75% |  |
| CC(c1cnc(Cl)s1)n1ccccc1=NC(=O)C1(C#N)COC1 (racemic) [I.A-21] |  |  | over 75% |
| N#CC1(C(=O)N=c2ccccn2Cc2ccc(Cl)nc2)COC1 [I.A-18] |  |  | over 75% |
